Taken from: PubChem BioAssay AID504744 (Drosophila RNAi Screening Center, 2011)
The deposit covers about 23,000 reagents; shown is an unselected part of those that have a named target and a result. Over the whole deposit, 98 (0.43%) were called active. 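Only hit calls are given; the phospho-dAkt signals, z-scores and hit direction were not deposited.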 Names joined by + are all predicted targets of the reagent.

- Purpose: 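Identify dsRNAs that increase or decrease phospho-dAkt after insulin treatment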 (primary screen)
- Cell system: Drosophila Kc167 cells
- Knock-down reagent: long dsRNA against Drosophila genes, 250 ng dsRNA per well of a 384-well plate
- Time to read-out: 3 days of knock-down, then overnight serum-free starvation before stimulation
- Challenge: bovine insulin at 387 nM for 10 minutes after 12 h without serum
- Measurement: 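In-cell antibody fluorescence for phospho-dAkt in each well over DNA-dye signal, with log2 residuals expressed as z-scores adjusted for cell count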
- Rule for the call: 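Under insulin, a gene counts as a hit if the average z-score of two replicates lies above 2.5 or below -2.5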

| gene | amplicon | Outcome |
| --- | --- | --- |
| Osi5 | DRSC12276 | inactive |
| Reepl1 | DRSC19418 | inactive |
| Pih1D1 | DRSC02897 | inactive |
| clt | DRSC04621 | inactive |
| CG11286 | DRSC14293 | inactive |
| Obp56f | DRSC22270 | inactive |
| CG9953 | DRSC11106 | inactive |
| rin | DRSC17045 | inactive |
| LpR2 | DRSC13726 | inactive |
| LpR2 | DRSC13728 | inactive |
| LpR2 | DRSC15655 | inactive |
| LpR2 | DRSC15658 | inactive |
| Polr2B | DRSC16831 | inactive |
| ND-B15 | DRSC06199 | inactive |
| CG18581 | DRSC10324 | inactive |
| l(3)80Fg | DRSC21645 | inactive |
| l(3)80Fg | DRSC22171 | inactive |
| CG7342 | DRSC16230 | inactive |
| wrapper | DRSC04723 | inactive |
| CG33120 | DRSC02073 | inactive |
| CG15822 | DRSC08482 | inactive |
| CG15822 | DRSC08483 | inactive |
| CG15143 | DRSC02444 | inactive |
| CG6937 | DRSC16140 | inactive |
| Rrp42 | DRSC07161 | inactive |
| Gar1 | DRSC04441 | inactive |
| crok | DRSC02593 | inactive |
| crok | DRSC21349 | inactive |
| CG13728 | DRSC10056 | inactive |
| CG30486 | DRSC06680 | inactive |
| RyR | DRSC07543 | inactive |
| garz | DRSC07193 | active |
| CG14422 | DRSC17919 | inactive |
| Cpsf160 | DRSC05968 | inactive |
| tei | DRSC07616 | inactive |
| Impbeta11 | DRSC07525 | inactive |
| CG17258 | DRSC00495 | inactive |
| CG17258 | DRSC22709 | inactive |
| erm | DRSC00700 | inactive |
| CG11374 | DRSC00306 | inactive |
| Glg1 | DRSC11815 | inactive |
| Glg1 | DRSC11816 | inactive |
| Glg1 | DRSC11817 | inactive |
| CG32447 | DRSC11732 | inactive |
| CG32447 | DRSC11805 | inactive |
| GstE8 | DRSC06678 | inactive |
| CG11247 | DRSC11643 | inactive |
| CG11247 | DRSC21901 | inactive |
| Elo68beta | DRSC09860 | inactive |
| Clbn | DRSC14404 | inactive |
| CG12206 | DRSC17828 | inactive |
| PGRP-SA | DRSC19420 | inactive |
| Su(Tpl) | DRSC10954 | inactive |
| CG32459 | DRSC11852 | inactive |
| ng3 | DRSC18804 | inactive |
| CG12164 | DRSC06115 | inactive |
| CG12164 | DRSC21777 | inactive |
| beat-IIa | DRSC14813 | inactive |
| beat-IIa | DRSC14814 | inactive |
| CG30195 | DRSC04155 | inactive |
| CG42346 | DRSC20622 | inactive |
| CG42346 | DRSC20644 | inactive |
| Mgtor | DRSC05958 | inactive |
| Tmx3 | DRSC10471 | inactive |
| CG32806 | DRSC21699 | inactive |
| St3 | DRSC04505 | inactive |
| Unc-115a | DRSC12749 | inactive |
| insb | DRSC06995 | inactive |
| Tango14 | DRSC00667 | inactive |
| CheA75a | DRSC10807 | inactive |
| vnc + CG42455 | DRSC09867 | inactive |
| CG31464 | DRSC14345 | inactive |
| alpha-Est1 | DRSC12612 | inactive |
| Hey | DRSC07440 | inactive |
| pes | DRSC03033 | inactive |
| ACC | DRSC06059 | inactive |
| ACC | DRSC07249 | inactive |
| Gr59a | DRSC21550 | inactive |
| CG5377 | DRSC15783 | inactive |
| CG34450 | DRSC17822 | inactive |
| Fer3 | DRSC16133 | inactive |
| bchs | DRSC03126 | inactive |
| gcl | DRSC07623 | inactive |
| CG12964 | DRSC06266 | inactive |
| Gld | DRSC12595 | inactive |
| spn-E | DRSC17064 | inactive |
| CG7069 | DRSC16188 | inactive |
| tim | DRSC00841 | inactive |
| CG13282 | DRSC02254 | inactive |
| Mtmr6 | DRSC04046 | inactive |
| CG11885 | DRSC00329 | inactive |
| CG32196 | DRSC09548 | inactive |
| CG2217 + CG42740 | DRSC14141 | inactive |
| BomS1 | DRSC22678 | inactive |
| wor | DRSC03637 | inactive |
| colt | DRSC00808 | inactive |
| Kat60 | DRSC12378 | inactive |
| RhoGAP71E | DRSC10232 | inactive |
| RhoGAP71E | DRSC10837 | inactive |
| RhoGAP71E | DRSC10838 | inactive |
| Itpr | DRSC12354 | inactive |
| CG33234 | DRSC07994 | inactive |
| CG1316 | DRSC08304 | inactive |
| CG8135 + BBIP1 | DRSC12739 | inactive |
| CG8135 + BBIP1 | DRSC16384 | inactive |
| CG43897 | DRSC10965 | inactive |
| CG43897 | DRSC10967 | inactive |
| CG43897 | DRSC21583 | inactive |
| Fa2h | DRSC06608 | inactive |
| Fa2h | DRSC06609 | inactive |
| ftz-f1 | DRSC11347 | inactive |
| CG1421 | DRSC03707 | inactive |
| CG11588 | DRSC09145 | inactive |
| CG11588 | DRSC09846 | inactive |
| CG6294 + CG6299 | DRSC19980 | inactive |
| Oseg4 | DRSC08548 | inactive |
| Lnk | DRSC16729 | inactive |
| Polr1H | DRSC14594 | inactive |
| CG8461 | DRSC16424 | inactive |
| Cbp80 | DRSC18450 | inactive |
| csul | DRSC07599 | inactive |
| lectin-37Db | DRSC03279 | inactive |
| CG8565 | DRSC20112 | inactive |
| CG10674 | DRSC09775 | inactive |
| CG1910 | DRSC15400 | inactive |
| CG14106 | DRSC10109 | inactive |
| Polr2A | DRSC20280 | inactive |
| CG42729 | DRSC10236 | inactive |
| CG10232 | DRSC14218 | inactive |
| CG14740 | DRSC14960 | inactive |
| Cngl | DRSC20318 | inactive |
| sn | DRSC18834 | inactive |
| Hsp68 | DRSC16712 | inactive |
| LPCAT | DRSC18157 | inactive |
| LPCAT | DRSC18257 | inactive |
| CG3651 | DRSC03730 | inactive |
| Taf10b | DRSC00792 | inactive |
| CG15254 | DRSC01870 | inactive |
| CG15254 | DRSC21765 | inactive |
| AGBE | DRSC06861 | inactive |
| 140up | DRSC12634 | inactive |
| Sgsh | DRSC14771 | inactive |
| Setx | DRSC10859 | inactive |
| gkt | DRSC00821 | inactive |
| Cht12 | DRSC03844 | inactive |
| EMC2B | DRSC15506 | inactive |
| lncRNA:roX2 | DRSC22237 | inactive |
| Arp2 | DRSC19332 | inactive |
| CG5614 | DRSC15845 | inactive |
| Duba | DRSC10582 | inactive |
| Ypel | DRSC17996 | inactive |
| CG3704 | DRSC18174 | inactive |
| CG3704 | DRSC18645 | inactive |
| CG12693 | DRSC17882 | inactive |
| CG12547 | DRSC07759 | inactive |
| beat-Ia | DRSC03489 | inactive |
| PIG-U | DRSC02193 | inactive |

Hits, among the entries above:
| gene | amplicon | Outcome |
| --- | --- | --- |
| garz | DRSC07193 | active |
